Among all 52,000 sequences or so, about 210 (0.4%) were called active.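 Rule for the calls: active = gene whose silencing raises cell survival under the drug, median off-target-corrected z-score across its silencing RNAs 2 or more; inactive = the rest.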 This is one part of the list.

We go through 103 sequences from PubChem BioAssay AID1347423 (Functional Genomics Laboratory (NCATS/FGL), 2020).

This assay is described as follows: Resistance to Poly (ADP-Ribose) Polymerase inhibitor: Gene Identification via Genome-wide siRNA Screen. The conditions noted are these: mouse BRCA2 R2336H ES cells, olaparib, CellTiter-Glo viability; stronger effect = higher value. The method, boiled down: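 Genome-wide siRNA screen (3 siRNAs/gene, 20 nM) in mouse ES cells carrying hypomorphic BRCA2 R2336H; olaparib 500 nM added 48 h post-transfection, CellTiter-Glo viability 72 h later. Normalized to plate-median negative control; MAD z-scores, gene median, seed-adjusted.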
With “GGUUUGAUCCUCCACAUUCTT against 8430423A01Rik”, the z-score was inactive: -1.97.

Take GGCUUCUGAUACAUAUAUCTT against G6pc2: the z-score was inactive: 1.49.

CACGAUGUGGAGCAUGUGCTT against Pfdn5: the z-score is inactive: 0.128.

As to GGCUAUGAGAAUCACAUAATT against Tpo, the z-score was inactive: -0.984.

For GGUCUUUUUGAAUAGAGUATT against BC038479, the z-score was inactive: -0.691.

As to “GGAAUUUGAUUCUCUGCCUTT against 6820429M01”, the z-score was inactive: 0.0636.

With GCAUGUUUAGAACUAGCUCTT against Zfp87, the z-score is inactive: -0.922.

In the case of “GGUCAACGUAAAUUGUUCATT against 4833424O15Rik”, the z-score was inactive: -1.28.

In the case of GGGACAAUUAGAAAGACAUTT against Mtif2, the z-score is inactive: -0.55.

In the case of “GCUGGGACCUCAGAAAGUUTT against D630047F21Rik”, the z-score is inactive: 0.365.

Take CCUCCUGGAAGGGAUCAUGTT against BC025600: the z-score is inactive: -2.37.

Take “GCUUCAUAACACAAACGGATT against 4930500C15Rik”: the z-score is inactive: -0.366.

In the case of GGAAAAGGUGGAAAAGAUATT against AA536743, the z-score is inactive: 0.265.

Take CCAGUGAAAAAAAUGCCAUTT against Olfr344: the z-score is inactive: 1.08.

CGGUUUACGCCACAAAAGUTT against Rprm: the z-score was inactive: -0.0947.

As for CCAUUCGAGAUGAGAAGAATT against Gcc1, the z-score is inactive: -1.26.

Regarding GCUCUAUAUCCAGGAAACUTT against Krtap6-2, the z-score is inactive: -0.626.

Consider “GCACUUUGCACACUUAUUATT against 4932408B21Rik”, for which the z-score was inactive: 0.409.

In the case of GGCAGUACCUUACAUUUAATT against Galnt7, the z-score is inactive: 0.777.

On to “GGGUGUAUUCUGCUUUGUATT against 2600013N14Rik”, for which the z-score is inactive: -1.3.

Turning to GGUCAAAUGGUGAAAAAGUTT against Stxbp5l, the z-score is inactive: -1.01.

Take GGACUGUGACCUCAAAAAGTT against Gsbs: the z-score is inactive: 1.

In the case of CCGCCCGCUCAACACUAAUTT against Zfp36l3, the z-score is inactive: 1.79.

As to GGUUGACUGAAGUAAUAGCTT against Sdccag1, the z-score is inactive: 0.267.

Regarding GGCGGUCAAGGGAAAAACATT against Tcf7, the z-score was inactive: 0.0331.

On to CCAAUAUGCUCAGUAUUACTT against Eya4, for which the z-score is inactive: 0.581.

As to “GCUGCAUUUUUUGGCAGAGTT against 2010308M01Rik”, the z-score is inactive: -0.103.

On to “GGAGAGGAGAGUCUUGGAATT against 3110082I17Rik”, for which the z-score is inactive: -0.715.

In the case of CCGCUUUUCAUAACACGAATT against BC027556, the z-score is inactive: -1.41.

As for “GGUGUAACUCCUUCAUUGATT against 6330500D04Rik”, the z-score was inactive: 0.286.

For “GCCGCUACUCUCCUCAAAATT against 1110007C09Rik”, the z-score is inactive: 1.02.

Turning to GGGUUUUACUAUGUAGCUCTT against Olfr94, the z-score is inactive: -0.385.

CCGCAAAGUGAGCAAGGUGTT against Idb1: the z-score was inactive: 0.999.

For GCUUGCUGACAUGAUUCCUTT against Ndrg2, the z-score is inactive: -1.31.

With GGUUGGUUUGGAGAAGGCATT against Krt1-24, the z-score was inactive: -0.372.

GGAGACCCUUGAUAGCCCATT against Brunol6: the z-score was inactive: -0.0402.

For the sequence GCUGGAAAACCGACAACUCTT against DXImx47e, the z-score was inactive: 0.872.

For GGUUUGCCUGUGCUGAUAUTT against Olfr549, the z-score is inactive: -0.43.

On to “CGAAUAGAUCAAGUGAGACTT against 1700001L23Rik”, for which the z-score is inactive: 0.253.

Take “GGAGAAAUAAGAAAUUUGGTT against 1700047E16Rik”: the z-score was inactive: 0.279.

Consider GCCUCACAGAUUGAUAAUATT against Akt3, for which the z-score was inactive: 0.735.

As to GCUUCACGAUUAAAACUAATT against Ltb4r1, the z-score is inactive: 0.736.

Regarding CGUCAUGCAUUUUUCUAAATT against Trim24, the z-score is inactive: 0.844.

GGUCCCUGUGAACAAGCUGTT against Serpinf1: the z-score was inactive: -1.16.

As for “GGAAGGUUGCUGAAGAACGTT against 6030449J21”, the z-score is inactive: 1.17.

Consider CGGCCUCAGUUUAGAAUUATT against Plat, for which the z-score was inactive: 0.114.

For the sequence “GGAACUCCUUAAUUGAACATT against A930009M04Rik”, the z-score is inactive: -0.175.

Consider GUAAGGUAUUCAGUGACCUTT against Olfml2a, for which the z-score is inactive: -0.54.

Take GGACUCCCUGAAGUAGUGATT against V1re2: the z-score was inactive: -0.491.

For the sequence GGUGGAUUUCUACUAUGAUTT against Abcf3, the z-score was inactive: 0.476.

As for GCUACUUGGAGUCUAUUUGTT against C1ql3, the z-score is inactive: -0.795.

Regarding CCUAUGGCCAUUAUGAGCCTT against Rcn3, the z-score is inactive: 1.18.

As to “GGCGUAGGUUCUUUACUGGTT against 3110007P09Rik”, the z-score was inactive: 0.991.

Take GCAUUGGCUGUACUACUAUTT against Psg18: the z-score is inactive: -0.196.

As for GGCCACCGUUCAAAAAAUUTT against Dctn5, the z-score was inactive: -1.81.

As to GGCAAAUUAGAGGAAAAGUTT against Zfp354a, the z-score is inactive: 0.566.

As to GAGCAUCUGUGUAGAAGUGTT against Thrsp, the z-score was inactive: -1.03.

On to GGAUGCAGAGACCUAUUUCTT against Cacng5, for which the z-score is inactive: -0.0995.

Turning to CGAGAAAUUGUAGAAGUAATT against Thrap6, the z-score is inactive: 0.249.

For GCCCAGGACAAUAUAUCCGTT against Mylc2b, the z-score is inactive: 0.894.

As for GCUCAAUGGCUACACGGAUTT against Ace, the z-score was inactive: 1.18.

As to “GGUAGUGGCUAAUGCUGUGTT against 2410002I01Rik”, the z-score was inactive: 0.938.

For the sequence GGUGUUUACCUGUGACGAGTT against Zfp509, the z-score is inactive: -0.816.

With GGAAAAAUUUAAAGAGGUCTT against Dnajb4, the z-score is inactive: 0.929.

Regarding CGUCUGAACACUUCAAGACTT against Vamp8, the z-score was inactive: 1.6.

In the case of GGUCCUUGUACAACCACCCTT against Acd, the z-score is inactive: -0.287.

On to GAGUGGGAUUAUGUUCAAUTT against Krtap16-5, for which the z-score was inactive: -0.232.

With GGAUCUGAGCCUUAACAAGTT against Grcc3f, the z-score was inactive: -0.352.

CCAACUUUUAGUCUAGAAATT against Mat2a: the z-score is inactive: -1.89.

Regarding GCUUGUAGACUUCCUCCUGTT against Olfr524, the z-score was inactive: 0.105.

Turning to “CUACAGUCGCAUCAACUAUTT against 1700055M20Rik”, the z-score was inactive: 0.933.

Turning to “GGUAAGCUAAAUGAAAUGGTT against 9930104E21Rik”, the z-score is inactive: 1.21.

On to “CGAAAGCAUUGCCUACUUUTT against 2700067D09Rik”, for which the z-score is inactive: 0.231.

As for GGAAAAAUGCUACAUACAATT against Slc15a2, the z-score was inactive: -0.619.

Take “AGUUCCAGGCGCAGAAACCTT against D8Ertd738e”: the z-score is inactive: 0.997.

In the case of GCUCUUCAUUGAAUCUCGGTT against Per1, the z-score was inactive: 0.502.

With GGCCUUGAGAGGCUAAUACTT against Tisp78, the z-score is inactive: -1.74.

In the case of GGCAGAAAUGCUGGAGAUUTT against Ncald, the z-score is inactive: -0.871.

For GCUGACUUUUUGACAUUGUTT against Rab39, the z-score is inactive: 0.0783.

As to GCGGUCAACUGGAAACUAATT against Dnaja3, the z-score was inactive: -1.67.

Take GGUGAGGAUUGAUAAUGAGTT against Rit2: the z-score is inactive: 0.842.

With “CGGCAUGGUGACCUAAUGCTT against 4632406N01Rik”, the z-score is inactive: 0.313.

As for GGCAAAUCAAGCAGAAAAUTT against Ncor1, the z-score was inactive: 0.152.

As to GGACCAUGCACGAUACUCUTT against Foxn1, the z-score is inactive: 1.28.

With GGUAAUUGAAAGAGGAGAGTT against Vamp4, the z-score is inactive: -1.14.

With GGAAUGUGAACCUUAUAGATT against D9Wsu20e, the z-score is inactive: 0.256.

Turning to GCCCUACCAAUACUACAGUTT against Lamc3, the z-score is inactive: 0.208.

As to CGCAUUCUACUCCUAUGAGTT against Pdcd2, the z-score is inactive: 1.18.

For the sequence GGGAUGUGUGAAUAAAAAATT against Elovl7, the z-score is inactive: 0.501.

For the sequence “GGCGGUUUCACCUAUACAATT against A930029K19Rik”, the z-score was inactive: -1.42.

With “GCAAUUCUUGGAGUUCAAATT against 2810475A17Rik”, the z-score was inactive: -1.08.

Consider CCCAUUAGAUGCUGAAUAUTT against Stmn1, for which the z-score was inactive: -0.718.

Turning to GGAGGUCCAUGUCCUGCUUTT against Mesp2, the z-score was inactive: 2.51.

Regarding GGAUUGUUGGGAAUUCUUUTT against Zfp60, the z-score is inactive: -1.09.

For the sequence “GGCAUAAGCCAUUCAGCCGTT against 2810421I24Rik”, the z-score is inactive: -0.666.

With “GGAAGAAAAGACAAAUCUGTT against 2810452K22Rik”, the z-score is inactive: 0.551.

Consider GGUACUGUACUGAUGACAUTT against Dhx32, for which the z-score is inactive: 0.129.

In the case of GGCUUUGUAGAAAAUUCAUTT against Polr2a, the z-score was inactive: -3.45.

Consider GGACUACCUGCUCUUGAAATT against LOC626359, for which the z-score is inactive: 0.813.

For the sequence GCUACAUGAUUCAGCGGAATT against Itga3, the z-score is inactive: 0.762.

On to “GGUUCAUGAUGGAUGACAUTT against 2900011O08Rik”, for which the z-score is inactive: -1.93.

As for CCAUAUGGCAGUUUUGGCUTT against V1rd6, the z-score was inactive: 0.506.

Turning to “GGCUACAAAGGAGUUCCUATT against 1700023O11Rik”, the z-score is inactive: 2.78.
